Data: PMC6062506
These are yes or no findings as the source states them, for the method shown. In cells and extracts the contact can be indirect. A yes stands for co-enrichment or nearness to the bait. Other partners may have been found.

Sequences of proteins named here, by UniProt entry; tags and fusion partners are left off.
UniProt P11103: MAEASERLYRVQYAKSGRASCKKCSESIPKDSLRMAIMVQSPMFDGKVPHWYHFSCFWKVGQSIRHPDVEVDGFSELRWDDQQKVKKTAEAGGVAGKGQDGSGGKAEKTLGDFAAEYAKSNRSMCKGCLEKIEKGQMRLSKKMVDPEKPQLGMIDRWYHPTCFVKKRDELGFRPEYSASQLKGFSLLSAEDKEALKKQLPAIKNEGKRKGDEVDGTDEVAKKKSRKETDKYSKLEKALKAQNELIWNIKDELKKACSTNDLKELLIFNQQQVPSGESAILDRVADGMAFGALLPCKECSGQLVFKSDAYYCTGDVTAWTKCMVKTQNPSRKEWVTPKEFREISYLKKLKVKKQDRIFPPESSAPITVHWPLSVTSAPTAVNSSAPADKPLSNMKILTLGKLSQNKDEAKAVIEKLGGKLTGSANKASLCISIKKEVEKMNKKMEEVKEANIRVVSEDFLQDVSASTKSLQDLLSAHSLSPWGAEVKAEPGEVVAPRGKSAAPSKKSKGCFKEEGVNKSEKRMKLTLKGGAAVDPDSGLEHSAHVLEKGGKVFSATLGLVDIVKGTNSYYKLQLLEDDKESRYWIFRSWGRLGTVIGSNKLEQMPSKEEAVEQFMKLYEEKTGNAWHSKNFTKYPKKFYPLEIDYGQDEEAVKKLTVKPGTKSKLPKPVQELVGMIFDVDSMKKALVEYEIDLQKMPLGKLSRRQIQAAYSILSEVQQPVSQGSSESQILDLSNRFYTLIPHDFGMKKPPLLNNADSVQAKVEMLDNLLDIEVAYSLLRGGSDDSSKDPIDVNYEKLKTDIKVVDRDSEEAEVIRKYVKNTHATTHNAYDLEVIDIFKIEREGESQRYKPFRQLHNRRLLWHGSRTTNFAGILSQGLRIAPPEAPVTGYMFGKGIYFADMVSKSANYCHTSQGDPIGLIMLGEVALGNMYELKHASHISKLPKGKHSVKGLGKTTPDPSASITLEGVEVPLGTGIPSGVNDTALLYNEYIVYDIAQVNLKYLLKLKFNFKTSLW

Molecular target: Poly (ADP-ribose) polymerase 1 (PARP1), endogenous in mouse liver (mouse (endogenous in liver)) (UniProt P11103)
Experiment: affinity purification with mass spectrometry; anti-PARP1 antibody or IgG with extracts of APAP-treated mouse liver overnight at 4 °C, protein-A/G agarose; silver staining; band around 50 kDa subjected to LC-MS/MS

B1: pregnane X receptor (PXR), endogenous in mouse liver (receptor, UniProt O54915 1-431)
chain: MRPEESWSRVGLVQCEEADSALEEPINVEEEDGGLQICRVCGDKANGYHFNVMTCEGCKGFFRRAMKRNVRLRCPFRKGTCEITRKTRRQCQACRLRKCLESGMKKEMIMSDAAVEQRRALIKRKKREKIEAPPPGGQGLTEEQQALIQELMDAQMQTFDTTFSHFKDFRLPAVFHSGCELPEFLQASLLEDPATWSQIMKDRVPMKISLQLRGEDGSIWNYQPPSKSDGKEIIPLLPHLADVSTYMFKGVINFAKVISYFRDLPIEDQISLLKGATFEMCILRFNTMFDTETGTWECGRLAYCFEDPNGGFQKLLLDPLMKFHCMLKKLQLHKEEYVLMQAISLFSPDRPGVVQRSVVDQLQERFALTLKAYIECSRPYPAHRFLFLKIMAVLTELRSINAQQTQQLLRIQDSHPFATPLMQELFSSTDG
With B1 the binding was “binds”.
